About 5,900 (2.8%) of roughly 210,000 compounds were called active. Not shown: some 5% with an inconclusive outcome. Calls follow the shape of the dose curve; as a rule, active = well fitted activation curve with a large enough effect; inconclusive = small, poorly fitted or top-dose-only effect; inactive = no such curve, though single readings can be large or run the other way. Only a part is listed here, and it is no random draw. Entries without a call were filed so in the source.
Assay: qHTS Assay for Enhancers of SMN2 Splice Variant Expression; also: nearly all actives have a fitted effect of over 55% in size; as to activity change, positive = activation: % of control where 0% means no effect
Settings: HEK293 SMN2-luciferase splicing reporter, luminescence, 30-36 h; activity change, positive = activation: at 46.1 µM (top of the series) unless noted
Source text: NIH Chemical Genomics Center [NCGC] NIH Molecular Libraries Probe Production centers Network [MLPCN] MLPCN Grant: R03 MH084179-01 Assay Submitter (PI): Elliot Androphy NCGC Assay Overview: Spinal muscular atrophy (SMA) is caused by insufficient levels of the survival motor neuron protein SMN. The SMN locus on chromosome 5q13 contains two inverted copies of SMN called SMN1 and SMN2 which are 99% identical at the amino acid level. SMN1 is a fully functional protein and SMN2 skips exon 7 90% of the time. Skipping of exon 7 produces non-functional protein product. 10% of the SMN2 protein includes exon 7 and is fully functional. In the SMA disease state, mutations in the SMN1 locus are the cause of the disease state. Because only 10% of SMN2 is of the fully functional form, it is not sufficient to overcome the deficiency produced by the loss of the SMN1 product. A therapy that either increase the amount of SMN2 product made or to increase the inclusion of exon 7 has been proposed for the treatment of SMA. We have designed an assay to identify small molecules that can increase the amount of functional SMN2 product by appending a luciferase reporter gene after the native SMN2 gene, such that inclusion of exon 7 in the expressed product places the luciferase sequence in frame, thus generating functional luciferase enzyme.
NCGC Assay Protocol Summary: This screen utilizes a luciferase reporter gene assay, combining the promoter and splicing based cassettes in tandem with the major portion of the native SMN2 cDNA, and then transfected into HEK293 cells. Compounds that increase luciferase signal presumably enhance expression of the functional SMN2 splice variant. Passaging media contained DMEM w/ glutamax (+phenol red) 10% FCS, 1x pen/strep, 200 ug/ml hygro, 1x sodium pyruvate. Assay media contained DMEM w/ glutamax (-phenol red) 10% FCS, 1x pen strep, 1x pyruvate Sequence, Parameter, Value, Description (1) Cells, […], 2000 cells/well, 1536 TC treated White solid bottom plate (2) Time, 10-12 hours, 37C 5% CO2 (3) Compound, 23 nl, MLSMR Library (4) Control Compound, 23 nL, Sodium butyrate st 4.5mM (final) conc (5) Time, 30-36 hours, 37C 5% CO2 (6) Reagent, 3 ul, One Glo (TM) from Promega (7) Time, 5-15 minutes, Room temp (8) Detector, Viewlux: luminescent read, 60 second integration, high speed 2x binning Keywords: Spinal muscular atrophy, SMA, SMN2, high throughput screening, MLSMR, MLPCN, NIH Roadmap, qHTS and NCGC
Potency is read from the fitted curve at half-maximal effect.

| SMILES | activity change, positive = activation | Potency |
| --- | --- | --- |
| COc1cccc(NC(=O)N2CCN(c3nnnn3-c3ccccc3)CC2)c1 | inactive: -28.2% | – |
| Cc1ccc(C(=O)Oc2ccc3c(c2)ncn3C)cc1 | 36.7% | – |
| COc1cc(C(c2c(C)[nH][nH]c2=O)c2c(C)[nH][nH]c2=O)ccc1OS(=O)(=O)c1ccccc1 | 30.6% | – |
| CCC(=O)Nc1nnc(Cc2ccccc2)s1 | 86.7% | – |
| O=S(=O)(Nc1nccs1)c1cc(Cl)ccc1Cl | 39.8% | – |
| Cc1ccc2c(c1)[C@@H]1CN(C)CC[C@@H]1N2S(=O)(=O)c1ccc([N+](=O)[O-])cc1 | -31.8% | – |
| Cc1cc(-n2c(C)cc(C(=O)CSc3nnnn3-c3ccccc3)c2C)no1 | inactive: -34.3% | – |
| CC(=O)CSc1nc2cc3c(cc2cc1C#N)OCCO3 | 22.9% | – |
| Cn1c(=O)c2c(nc(SCC(=O)NCC3CCCO3)n2C)n(C)c1=O (centres undefined) | 27.4% | – |
| O=C(Nc1ccc(N2CCCCC2)c(Cl)c1)c1ccc(N2CCOCC2)c([N+](=O)[O-])c1 | inactive: -31.4% | – |
| O=C(O)c1ccc(Cl)cc1Cl | inactive: -2.25% | – |
| Cn1c(CN2CCOCC2)nc2cc(NC(=O)c3ccc(F)cc3)ccc21 | -72.1% | – |
| O=C(Cc1cccs1)N/N=C\c1ccc(O)cc1 | 47.6% | – |
| Cc1ccc2nc(-c3ccc(NC(=O)CN4C(=O)c5ccccc5C4=O)cc3)sc2c1 | – | active: 2.82 µM |
| CCCSc1cc(=O)n(-c2ccc(F)cc2)nc1C(=O)OCC | 36.8% | – |
| COc1ccc(C(=O)N2CCOCC2)cc1Br | 33.5% | – |
| CCOC(=O)CNC(=S)N(Cc1ccccc1F)C1CCCCC1 | -1.4% | – |
| Cc1ccc2nc(NC(=S)NC(=O)c3ccco3)sc2c1 | – | active: 11.2 µM |
| O=c1oc2ccccc2cc1-c1csc(Cc2nc(-c3ccc(Cl)cc3)cs2)n1 | inactive: -76% | – |
| COc1ccc(NC(=O)CSc2nc(-c3ccc(OC)c(OC)c3)[nH]c2-c2ccc(C)cc2)cc1 | 36.7% | – |
| Cc1nc(CN2CCN(C(=O)NC3(c4ccccc4)CC3)CC2)cs1 | 41.5% | – |
| CCNc1nc(NC(C)CC)nc(Oc2ccc(OCC)nn2)n1 (centres undefined) | – | active: 5.62 µM |
| CCOCCc1nnc(N)s1 | 42.2% | – |
| CCC(C)NC(=O)CCC(=O)NNc1nc2ccccc2c2nc(C)nn12 (centres undefined) | 42.4% | – |
| CN(CCC#N)C(=O)COC(=O)c1c2c(nc3ccccc13)/C(=C/c1ccco1)CC2 | – | active: 22.4 µM |
| C/C(=N/Nc1cc(-c2ccccc2)nc(-c2ccccc2)n1)c1ccc(O)cc1 | -101% | – |
| COc1cc(C(=O)Nc2ccc3c(c2)OCCO3)ccc1OC(F)F | – | active: 14.1 µM |

Not a retest: entries from further up.

| SMILES | activity change, positive = activation | Potency |
| --- | --- | --- |
| CCC(C)NC(=O)CCC(=O)NNc1nc2ccccc2c2nc(C)nn12 (centres undefined) | 42.4% | – |
| CN(CCC#N)C(=O)COC(=O)c1c2c(nc3ccccc13)/C(=C/c1ccco1)CC2 | – | active: 22.4 µM |
| C/C(=N/Nc1cc(-c2ccccc2)nc(-c2ccccc2)n1)c1ccc(O)cc1 | -101% | – |

(cont.)

| SMILES | activity change, positive = activation | Potency |
| --- | --- | --- |
| CS(=O)(=O)N1CCN(c2ccccc2NC(=O)c2cccs2)CC1 | 40.3% | – |
| Cc1ccc(S(=O)(=O)NCCC(c2ccccc2)c2ccco2)cc1 (centres undefined) | -57.1% | – |
| COc1ccc(/C=C/C2=CCN(Cc3ccc(OC)cc3)CC2)cc1 | inactive: -50.8% | – |
| COc1ccccc1NC(=O)Nc1ccncc1 | inactive: -34.3% | – |
| CCOc1ccc(/C=C2/C(=O)N(c3ccc(OC)cc3)C(=S)N2CC(=O)OC)cc1OCC | – | active: 12.6 µM |
| Cc1cccc(NC(=S)NNC(=O)c2csc(C)c2)c1 | 40.6% | – |
| COc1ccc(-c2nc3c(c4c2C[C@H](c2ccccc2)OC4)CN(C(=O)c2cc(I)ccc2F)CC3)c(C)c1 | inactive: -10.6% [at 9.22 µM] | – |
| COc1ccccc1N(CC(=O)Nc1ccc(S(=O)(=O)N2CCCCC2)cc1)S(C)(=O)=O | 47.5% | – |
| CC(C)NS(=O)(=O)c1ccc(CCC(=O)NCc2ccco2)cc1 | 56.8% | – |
| Cc1cccc(N2CCN(C(=O)c3cn4ccccc4n3)CC2C)c1 (centres undefined) | inactive: -65.6% | – |
| S=C(NCCc1ccccc1)NC1CCCCCC1 | – | active: 12.6 µM |
| CC(=O)c1cc2c(cc1NS(=O)(=O)c1ccc(C)cc1)OCO2 | -36.7% | – |
| O=C(Nc1ccc(-c2nc3ccccc3o2)c(O)c1)c1cc(-n2cnnc2)ccc1Cl | inactive: -102% | – |
| Cn1nc(C(C)(C)C)cc1C(=O)NCc1ccc(N2CCCC2=O)cc1 | -87.1% | – |
| O=S(=O)(NCCSc1nnnn1-c1ccccc1)c1cccs1 | 44.3% | – |
| CC(=C1C(=O)c2ccccc2C1=O)N1CCC(C(N)=O)(N2CCCCC2)CC1 | 32.1% | – |
| Cc1cccc(NC(=O)c2cc3n(n2)C(C(F)(F)F)CC(c2ccc4c(c2)OCO4)N3)c1 (centres undefined) | 36.7% | – |
| C=CCC1C=C(C)CC(CC=C)N1 (centres undefined) | inactive: 3.08% | – |
| Cn1c(=O)c2c(ncn2Cc2cc(-c3ccccc3)no2)n(C)c1=O | -41.3% | – |
| N#Cc1ccc(CSc2nnc(-c3ccccn3)n2-c2ccccc2)cc1 | inactive: -29.6% | – |
| N#C/C(=C\c1ccc([N+](=O)[O-])cc1)c1ccccn1 | 107% | – |
| COc1ccc(-c2nn(CC(=O)N(C)C)c(=O)c3ccccc23)cc1 | 68.5% | – |
| COC(=O)c1ccccc1NC(=O)C1COc2ccccc2O1 (centres undefined) | 27.6% | – |
| CCOc1ccc(-n2c(=S)sc3c(=O)[nH]c(SCC(=O)N4CCC(C)CC4)nc32)cc1 | inactive: -47.7% | – |
| CSc1nnc2n(C3CCCCC3)c(=O)c3c4c(sc3n12)CCCC4 | 52.2% | – |
| O=C(O)CCCCCNS(=O)(=O)c1cccc2nsnc12 | 71% | – |
| CCC(C)c1ccc(OCCn2ccnc2)cc1 (centres undefined) | inactive: -30% | – |

Source: PubChem BioAssay AID1458 (National Center for Advancing Translational Sciences (NCATS), 2008)
